Test results as given in US20160207991A1.
These are yes or no findings as the source states them, for the method shown. Some binding calls cover weakened binding; strength is not graded here.

The chains behind the UniProt entries cited, without tags or fusion partners. Where a name states a change or a piece, a line headed by the entry shows the natural chain unless it says otherwise.
UniProt P08138: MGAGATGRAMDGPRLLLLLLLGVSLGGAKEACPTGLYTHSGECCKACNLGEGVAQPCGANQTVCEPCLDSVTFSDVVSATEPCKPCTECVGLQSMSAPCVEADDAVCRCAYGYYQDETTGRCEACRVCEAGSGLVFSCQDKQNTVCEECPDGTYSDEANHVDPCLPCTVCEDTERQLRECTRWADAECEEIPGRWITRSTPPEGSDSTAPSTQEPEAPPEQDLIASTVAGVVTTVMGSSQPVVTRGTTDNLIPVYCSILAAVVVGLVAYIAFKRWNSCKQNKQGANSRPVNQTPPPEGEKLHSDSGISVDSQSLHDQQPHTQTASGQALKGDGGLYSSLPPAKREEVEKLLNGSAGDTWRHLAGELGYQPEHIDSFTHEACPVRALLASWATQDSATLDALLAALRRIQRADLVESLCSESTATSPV

Target: p75NTR receptor (immobilised on the SPR flow cell) (Homo sapiens (Human)) (UniProt P08138)
Assay: SPR (Biacore T200): 20 nM BDNF injected over immobilised p75NTR [both panels]

binding: binds
B1: human brain-derived neurotrophic factor (BDNF) (ligand)
chain: HSDPARRGELSVCDSISEWVTAADKKTAVDMSGGTVTVLEKVPVSKGQLKQYFYETKCNPMGYTKEGCRGIDKRHWNSQCRTTQSYVRALTMDSKKRIGWRFIRIDTSCVCTLTIKRGR
